These are yes or no findings as the source states them, for the method shown. Some binding calls cover weakened binding; strength is not graded here.
Experiments:
[1] = target: T1, Recombinant human FGF23 (human) (UniProt Q9GZV9); assay: ELISA; direct ELISA; FGF coated on the plate (7.5 μg/ml, overnight 4 °C); MBP-tagged protein at a fixed concentration (0.7 nM), 2 h room temperature; detection with anti-MBP antibody; PBST washes; both purified
T1 sequence: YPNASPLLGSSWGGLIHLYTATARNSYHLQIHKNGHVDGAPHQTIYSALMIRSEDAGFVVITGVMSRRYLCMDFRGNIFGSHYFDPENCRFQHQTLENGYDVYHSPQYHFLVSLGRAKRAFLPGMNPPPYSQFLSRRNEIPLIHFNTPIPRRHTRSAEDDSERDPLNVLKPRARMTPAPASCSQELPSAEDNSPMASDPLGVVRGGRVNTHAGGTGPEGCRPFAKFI

[2] = target: T2, Recombinant FGF15 (mouse) (UniProt O35622); assay: as above
T2 sequence: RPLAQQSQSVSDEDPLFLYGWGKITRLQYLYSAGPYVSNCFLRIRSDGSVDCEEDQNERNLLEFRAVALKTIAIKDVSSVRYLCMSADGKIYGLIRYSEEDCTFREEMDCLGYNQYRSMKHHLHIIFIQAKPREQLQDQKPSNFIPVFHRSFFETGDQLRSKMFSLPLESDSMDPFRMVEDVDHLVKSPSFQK

B1: MBP-tagged human recombinant BP3 devoid of its signal peptide (natural protein, UniProt Q8TAT2 27-258, looked up)
chain: RREKGAASNVAEPVPGPTGGSSGRFLSPEQHACSWQLLLPAPEAAAGSELALRCQSPDGARHQCAYRGHPERCAAYAARRAHFWKQVLGGLRKKRRPCHDPAPLQARLCAGKKGHGAELRLVPRASPPARPTVAGFAGESKPRARNRGRTRERASGPAAGTPPPQSAPPKENPSERKTNEGKRKAALVPNEERPMGTGPDPDGLDGNAELTETYCAEKWHSLCNFFVNFWNG
notes: also called FGFBP3
In the case of B1, the binding [1] is reported as “binds” and the binding [2] is reported as “binds”.
